Experimental data published in EP3301100A1, “ORGANOMETALLIC FLUCONAZOLE DERIVATES AND THEIR USE AS ANTIMYCOTICS” (Universität Zürich, priority 2016, dated 2018).
At least one structure is not confirmed: it was looked up by name or label, or the drawing left a doubt.

System: human retinal pigment epithelial cell (RPE-1-hTert)
Settings: RPE-1-hTert cells, 48 h incubation, resazurin; mean ± standard deviation error
Experimental: In both topic and systemic applications, antimycotic drugs are getting in contact with patient tissues. It is therefore of utmost importance that new drug candidates display a lack of host toxicity. Thus, the antiproliferative effect of the new complexes were investigated in vitro on human retinal pigment epithelial cell (RPE-1-hTert). […] Table 1: Host cytotoxicity
Human fibroblast (MRC-5) and retinal pigment epithelial (RPE) cell lines were cultured in F-10 medium supplemented with 10% fetal calf serum (FCS, Gibco), 100 U/mL penicillin, 100 µg/mL streptomycin or DMEM medium (Gibco) supplemented with 10% fetal calf serum (FCS, Gibco), 100 U/mL penicillin, 100 µg/mL streptomycin, respectively, at 37 °C and 6% CO2.
Cytotoxicity studies of the compounds of the present invention were performed by a fluorometric cell viability assay using resazurin (Promocell GmbH). Briefly, one day before treatment the cells were plated in triplicate in 96-well plates at a density of 4 × 10^3 cells per well in 100 µL. […] After 4 h of incubation at 37 °C/6% CO2, the fluorescence of the highly red fluorescent resorufin product was quantified at 590 nm emission with 540 nm excitation wavelength using a SpectraMax M5 Microplate Reader. The results were expressed as mean ± standard deviation error of independent experiments.

Q: How did the IC50 turn out when `CC(C)[NH+](C[c-]1cccc1)CC(O)(Cn1cncn1)c1ccc(F)cc1F.[Cl-].[Fe+2].c1cc[cH-]c1` (stereo not drawn) [Isopropyl, syn/anti-N-(ferrocenylmethyl)-2-(2,4-difluorophenyl)-2-hydroxy-N-isopropyl-3-(1H-1,2,4-triazol-1-yl)propan-1-aminium chloride] was run?
A: The IC50 was 48.4 ^±2.9 µM.

Q: With `CC[NH+](C[c-]1cccc1)CC(O)(Cn1cncn1)c1ccc(F)cc1F.[Cl-].[Fe+2].c1cc[cH-]c1` (stereo not drawn) [Ethyl, syn/anti-N-(ferrocenylmethyl)-2-(2,4-difluorophenyl)-2-hydroxy-N-ethyl-3-(1H-1,2,4-triazol-1-yl)propan-1-aminium chloride] as the compound, how does the IC50 read?
A: Its IC50 is 51.2 ^±0.1 µM.
